Reference: article doi:10.1101/2020.04.11.036434
No constants are given. Whether binding was seen depends on the method and setting.

Protein sequences, listed by entry. Tags and fused reporters are not part of them.
UniProt P60484: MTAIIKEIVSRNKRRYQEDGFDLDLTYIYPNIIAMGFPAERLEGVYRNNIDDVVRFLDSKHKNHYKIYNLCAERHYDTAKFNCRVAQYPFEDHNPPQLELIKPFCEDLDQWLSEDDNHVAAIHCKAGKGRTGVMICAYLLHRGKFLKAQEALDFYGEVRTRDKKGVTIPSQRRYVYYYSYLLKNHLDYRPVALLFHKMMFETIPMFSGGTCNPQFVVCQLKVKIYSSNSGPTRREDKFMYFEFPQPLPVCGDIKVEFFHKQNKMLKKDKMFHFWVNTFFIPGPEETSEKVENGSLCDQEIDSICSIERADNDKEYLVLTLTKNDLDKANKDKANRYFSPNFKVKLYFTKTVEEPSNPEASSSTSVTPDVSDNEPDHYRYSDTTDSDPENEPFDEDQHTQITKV
UniProt Q8TCU6: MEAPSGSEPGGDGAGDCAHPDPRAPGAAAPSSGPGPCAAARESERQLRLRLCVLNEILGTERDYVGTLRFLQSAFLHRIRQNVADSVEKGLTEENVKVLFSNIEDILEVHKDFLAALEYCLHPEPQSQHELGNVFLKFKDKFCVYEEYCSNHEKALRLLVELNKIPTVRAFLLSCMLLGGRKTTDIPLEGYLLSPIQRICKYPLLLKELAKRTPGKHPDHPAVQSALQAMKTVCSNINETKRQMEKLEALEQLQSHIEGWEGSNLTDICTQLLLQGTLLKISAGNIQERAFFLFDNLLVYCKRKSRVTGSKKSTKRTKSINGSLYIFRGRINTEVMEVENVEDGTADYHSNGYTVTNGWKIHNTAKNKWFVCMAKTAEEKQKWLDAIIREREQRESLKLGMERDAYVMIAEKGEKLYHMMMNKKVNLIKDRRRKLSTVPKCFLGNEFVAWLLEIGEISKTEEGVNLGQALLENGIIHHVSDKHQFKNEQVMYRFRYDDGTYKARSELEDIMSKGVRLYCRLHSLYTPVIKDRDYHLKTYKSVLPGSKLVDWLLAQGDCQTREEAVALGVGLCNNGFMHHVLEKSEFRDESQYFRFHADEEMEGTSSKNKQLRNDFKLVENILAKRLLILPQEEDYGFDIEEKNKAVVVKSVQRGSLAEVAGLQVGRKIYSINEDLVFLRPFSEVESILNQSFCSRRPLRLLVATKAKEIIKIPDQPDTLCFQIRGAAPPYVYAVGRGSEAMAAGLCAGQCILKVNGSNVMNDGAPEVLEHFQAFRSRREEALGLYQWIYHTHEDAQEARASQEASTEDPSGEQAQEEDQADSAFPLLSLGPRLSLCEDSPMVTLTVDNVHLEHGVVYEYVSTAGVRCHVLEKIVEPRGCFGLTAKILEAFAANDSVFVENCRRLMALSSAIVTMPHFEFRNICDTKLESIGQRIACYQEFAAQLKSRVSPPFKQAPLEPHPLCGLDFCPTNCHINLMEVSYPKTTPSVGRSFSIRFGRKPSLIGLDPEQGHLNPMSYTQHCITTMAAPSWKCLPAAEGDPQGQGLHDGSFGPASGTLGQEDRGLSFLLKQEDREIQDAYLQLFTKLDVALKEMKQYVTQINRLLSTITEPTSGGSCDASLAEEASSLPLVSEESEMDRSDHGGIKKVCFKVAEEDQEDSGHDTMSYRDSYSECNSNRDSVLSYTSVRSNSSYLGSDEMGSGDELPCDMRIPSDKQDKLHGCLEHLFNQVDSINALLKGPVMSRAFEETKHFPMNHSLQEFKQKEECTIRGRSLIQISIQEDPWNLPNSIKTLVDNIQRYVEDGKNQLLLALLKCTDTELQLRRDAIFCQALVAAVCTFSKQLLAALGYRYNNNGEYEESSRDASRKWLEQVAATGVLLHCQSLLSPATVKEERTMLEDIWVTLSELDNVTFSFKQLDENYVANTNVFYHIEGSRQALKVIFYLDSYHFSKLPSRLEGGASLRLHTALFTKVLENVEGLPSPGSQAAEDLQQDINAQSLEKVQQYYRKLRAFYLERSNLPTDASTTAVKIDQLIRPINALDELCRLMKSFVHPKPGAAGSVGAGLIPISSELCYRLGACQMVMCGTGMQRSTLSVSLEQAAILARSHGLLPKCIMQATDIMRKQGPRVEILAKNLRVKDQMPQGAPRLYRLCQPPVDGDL

Target: PTEN (WT), recombinant insect-cell purified (UniProt P60484)
Assay: SPR

binding: no binding
Substance: P-Rex1 (WT) (from UniProt Q8TCU6 1-1659)
